{"source": "PubChem BioAssay AID504834", "about": "(National Center for Advancing Translational Sciences (NCATS), 2011)", "note": "Hit rate of the full screen: of about 320,000 compounds, about 22,000 (6.9%) were called active. The inconclusive results got no clear call from the source; some entries with a clear call stand among them for comparison. Calls follow the shape of the dose curve; as a rule, active = well fitted inhibition curve with a large enough effect; inconclusive = small, poorly fitted or top-dose-only effect, or another doubt; inactive = no such curve, though single readings can be large or run the other way. Potencies beside an inconclusive call are fits to weak or partial responses and may not hold up. Potency is read from the fitted curve at half-maximal effect."}
{"assay": "Primary qHTS for delayed death inhibitors of the malarial parasite plastid, 96 hour incubation", "conditions": "P. falciparum luciferase reporter growth; series mostly up to 28.7 µM", "in_short": "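P. falciparum expressing integrated firefly luciferase, in erythrocytes at 2% hematocrit, 0.05% parasitemia, incubated with compounds 96 h at 37 C, 5% CO2. Growth inhibition read as loss of luminescence; two-generation exposure targets delayed-death apicoplast inhibitors.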"}
{"smiles": "Cc1nc(N2CCN(Cc3ccccc3)CC2)c(C#N)c2c1COC(C)(C)C2", "Potency": "inconclusive: 14.7 µM [inhibitor, single point]"}
{"smiles": "Cc1nn(-c2cc(N3CCNCC3)ccc2[N+](=O)[O-])c(=O)c2ccccc12", "Potency": "inactive"}
{"smiles": "COc1c(C)cccc1C(=O)Nc1ccc(CN2CCCCC2)cc1", "Potency": "inconclusive: 0.0738 µM [inhibitor, full curve, poor fit]"}
{"smiles": "CCn1cc(/C=N\\NC(=O)c2ccc(F)cc2)cn1", "Potency": "inactive"}
{"smiles": "O=C1N=C(N2CCc3ccccc3C2)S/C1=C\\c1ccc(O)cc1", "Potency": "active: 11.7 µM"}
{"smiles": "CCOC(=O)c1ccn(CSc2c(F)c(F)cc(F)c2F)n1", "Potency": "inconclusive: 18.5 µM [inhibitor, single point]"}
{"smiles": "CCOc1ccc(CNc2nnnn2C)cc1OC", "Potency": "inactive"}
{"smiles": "CC(SC1=Nc2ccccc2C2CC=NN12)C(=O)NC1(C#N)CCCCC1", "note": "(stereo not given)", "Potency": "active: 8.28 µM"}
{"smiles": "Cc1[nH]n(C(C)(C)C)c(=O)c1Sc1ccc(Cl)cc1", "Potency": "inconclusive: 18.5 µM [inhibitor, single point]"}
{"smiles": "O=C(CC(c1ccccc1)c1ccccc1)Nc1ccncc1", "Potency": "active: 10.4 µM"}
{"smiles": "COc1ccc2cc(C(=O)C3CCCN(Cc4cnc(N5CCOCC5)s4)C3)ccc2c1", "note": "(stereo not given)", "Potency": "inactive"}
{"smiles": "CC(O)c1nc2ccccc2n1CCCOc1ccccc1", "note": "(stereo not given)", "Potency": "inactive"}
{"smiles": "O=C(CN1C(=O)c2ccccc2S1(=O)=O)N1CCN(c2ccccc2F)CC1", "Potency": "active: 5.86 µM"}
{"smiles": "CCOC1=NC(C(=O)O)c2ccccc2/C(=C(/C)Cl)N1", "note": "(stereo not given)", "Potency": "inconclusive: 4.15 µM [inhibitor, partial curve, poor fit]"}
{"smiles": "COc1cccc(-c2noc(C3CCCN(C(=O)c4ccccc4OC)C3)n2)c1", "note": "(stereo not given)", "Potency": "inconclusive: 18.5 µM [inhibitor, single point]"}
{"smiles": "O=C(Nc1ccon1)c1ccc(Br)o1", "Potency": "inconclusive: 18.5 µM [inhibitor, single point]"}
{"smiles": "CC(CCc1ccccc1)NC(=O)/C=C/c1ccc(Cl)cc1", "note": "(stereo not given)", "Potency": "inconclusive: 11.7 µM [inhibitor, partial curve, poor fit]"}
{"smiles": "Cc1cc(=O)[nH]c(SCC(=O)c2ccc3c(c2)NC(=O)CO3)n1", "Potency": "inconclusive: 11.7 µM [inhibitor, single point]"}
{"smiles": "CN(C)CCN=Cc1c(O)n(Cc2ccccc2)c(=O)c2ccccc12", "Potency": "inconclusive: 2.08 µM [inhibitor, single point]"}
{"smiles": "Cc1ccc(-c2nc(CS(=O)CC(=O)NCc3ccco3)c(C)o2)cc1", "note": "(stereo not given)", "Potency": "inactive"}
{"smiles": "COc1ccc(Cn2c(=O)sc3ccccc32)cc1OC", "Potency": "inconclusive: 18.5 µM [inhibitor, single point]"}
{"smiles": "O=C(N/N=C/c1ccc([N+](=O)[O-])o1)c1cc(-c2ccc(-c3ccccc3)cc2)nc2ccccc12", "Potency": "inconclusive: 0.465 µM [inhibitor, full curve, poor fit]"}
{"smiles": "Cc1[nH]c2ccc(C(=O)NC3CCC(C)CC3)cc2c1C", "note": "(stereo not given)", "Potency": "inconclusive: 4.15 µM [inhibitor, partial curve, poor fit]"}
{"smiles": "Cc1ccc(C)c(CN2C(=O)c3ccccc3S(=O)c3ccc(C(=O)N4CCN(c5ccccn5)CC4)cc32)c1", "note": "(stereo not given)", "Potency": "inconclusive: 18.5 µM [inhibitor, single point]"}
{"smiles": "COc1cccc(OC)c1C(=O)N1CCN(Cc2ccccc2C)CC1", "Potency": "inconclusive: 0.0657 µM [inhibitor, full curve, poor fit]"}
{"smiles": "Cc1nc2ccc(F)cc2cc1C(=O)NCC1CCCO1", "note": "(stereo not given)", "Potency": "active: 6.57 µM"}
{"smiles": "Cc1nn(CC(=O)Nc2ccc(Cl)cc2Cl)c(=O)c2ccccc12", "Potency": "inactive"}
{"smiles": "O=C1/C(=C/c2ccccc2F)SC(=S)N1CC(=O)N1CCCCC1c1cccnc1", "note": "(stereo not given)", "Potency": "active: 14.7 µM"}
{"smiles": "N#Cc1cc(C(=O)c2cc(Br)ccc2O)cn(Cc2ccccc2)c1=O", "Potency": "inconclusive: 10.4 µM [inhibitor, partial curve, poor fit]"}
{"smiles": "Cc1ccc(OCC(=O)N2CCN(Cc3cccnc3)CC2)cc1", "Potency": "inconclusive: 11.7 µM [inhibitor, single point]"}
{"smiles": "CCn1c(C)nc2cc(C(=O)NNS(=O)(=O)c3ccccc3F)ccc21", "Potency": "inactive"}
{"smiles": "C#CCSc1nc(Cc2ccc(Cl)cc2)nc2ccccc12", "Potency": "inconclusive: 18.5 µM [inhibitor, single point]"}
{"smiles": "COc1cc(CNCCNCC(C)O)ccc1OCc1ccc(Cl)nc1", "note": "(stereo not given)", "Potency": "inconclusive: 18.5 µM [inhibitor, single point]"}
{"smiles": "O=C(NC(=S)N1CCN(c2ccccc2)CC1)c1ccc(S(=O)(=O)N2CCOCC2)cc1", "Potency": "inconclusive: 10.4 µM [inhibitor, single point]"}
{"smiles": "COc1cc(CNC(C)C23CC4CC(CC(C4)C2)C3)cc(OC)c1OC", "note": "(stereo not given)", "Potency": "inconclusive: 7.38 µM [inhibitor, partial curve, poor fit]"}
{"smiles": "CC(C)(OC(=O)c1ccc(C(F)(F)F)cc1)c1cc2ccccc2c(=O)o1", "Potency": "inconclusive: 2.62 µM [inhibitor, single point]"}
{"smiles": "COC(=O)C(NC(C)=O)(Nc1ccc(Br)cn1)C(F)(F)F", "note": "(stereo not given)", "Potency": "inconclusive: 0.0828 µM [inhibitor, full curve, poor fit]"}
{"smiles": "Cc1c(/C=N/NC(=O)CNc2ccccc2)c2ccccn2c1C(=O)c1ccccc1", "Potency": "active: 2.94 µM"}
{"smiles": "CCN(CC)S(=O)(=O)c1ccc(NC2CCN(Cc3ccccc3)CC2)nc1", "Potency": "inconclusive: 18.5 µM [inhibitor, partial curve, poor fit]"}
{"smiles": "CC(=O)N1CCN(C(=O)c2ccc3c(c2)OCCO3)CC1", "Potency": "inactive"}
{"smiles": "COc1cc2c(cc1OC)C(c1cc(Br)c(OC)c(OC)c1)CC(=O)N2", "note": "(stereo not given)", "Potency": "inconclusive: 18.5 µM [inhibitor, single point]"}
{"smiles": "Cc1cc(NC(=O)COC(=O)c2c(C)nn(Cc3ccccc3Cl)c2Cl)no1", "Potency": "inactive"}
{"smiles": "NC(=O)c1ccc(NC(=O)COc2coc(CN3CCc4ccccc4C3)cc2=O)cc1", "Potency": "inconclusive: 11.7 µM [inhibitor, partial curve]"}
{"smiles": "O=C(CCn1c(=O)c2cccn2c2ccccc21)Nc1ccc(F)cc1", "Potency": "inconclusive: 18.5 µM [inhibitor, single point]"}
{"smiles": "COc1ccc(C(CNC(=O)c2cc(C)on2)N(C)C)cc1", "note": "(stereo not given)", "Potency": "inactive"}
{"smiles": "O=C1CSC2(N1)C1CC3CC(C1)CC2C3", "note": "(stereo not given)", "Potency": "inactive"}
{"smiles": "COc1ccc(/C=N/OCC(=O)N2CC3(C)CC2CC(C)(C)C3)cc1OC", "note": "(stereo not given)", "Potency": "inconclusive: 1.85 µM [inhibitor, partial curve, poor fit]"}
{"smiles": "CCOC(=O)C1(C)NC(c2ccc(OC)c(OC)c2)C2C(=O)N(CC)C(=O)C21", "note": "(stereo not given)", "Potency": "inactive"}
{"smiles": "COc1ccccc1C(=O)C1CCCN(C(=O)CN2CCCCC2=O)C1", "note": "(stereo not given)", "Potency": "inconclusive: 16.5 µM [inhibitor, partial curve, poor fit]"}
{"smiles": "COc1ccccc1CNCc1ccc(C)cc1", "Potency": "inactive"}
{"smiles": "COc1cccc(CNC(=O)c2ccc(NC3=NC4CS(=O)(=O)CC4S3)cc2)c1", "note": "(stereo not given)", "Potency": "inactive"}
{"smiles": "CC(=O)Nc1ccc(Cl)c(C(N)=O)c1", "Potency": "inconclusive: 7.38 µM [inhibitor, partial curve, poor fit]"}
{"smiles": "CC1(C)CC(NC(=O)N2c3ccccc3Sc3ccccc32)CC(C)(C)N1", "Potency": "inconclusive: 18.5 µM [inhibitor, single point]"}
{"smiles": "COc1cc(S(=O)(=O)Nc2cccc(C)c2)ccc1NC(=O)c1cccnc1", "Potency": "inconclusive: 16.5 µM [inhibitor, single point]"}
{"smiles": "CCOC(=O)c1[nH]c(C)c(C(=O)NCCC2=CCCCC2)c1C", "Potency": "active: 5.22 µM"}
{"smiles": "O=C(Nc1ccccc1N1CCN(c2ccccc2)CC1)c1ccccc1", "Potency": "inconclusive: 0.0586 µM [inhibitor, full curve, poor fit]"}
{"smiles": "COc1ccc(S(=O)(=O)NCC(c2ccco2)N2CCc3ccccc32)cc1", "note": "(stereo not given)", "Potency": "inconclusive: 0.37 µM [inhibitor, partial curve, poor fit]"}
{"smiles": "O=C(NCCN1CCOCC1)c1ccc2c(c1)N(Cc1ccc(Cl)cc1)CCS2", "Potency": "inconclusive: 13.1 µM [inhibitor, single point]"}
{"smiles": "N/C(Cc1ccc(Cl)c(Cl)c1)=N\\OC(=O)c1ccc(Br)o1", "Potency": "active: 14.7 µM"}
{"smiles": "Cc1cc(C)cc(-n2c(C)cc(C(=O)CSc3nnnn3C)c2C)c1", "Potency": "inconclusive: 18.5 µM [inhibitor, single point]"}
{"smiles": "CCN(CC)c1ccc([N+](=O)[O-])cc1/C=N/NC(=O)CC#N", "Potency": "inconclusive: 11.7 µM [inhibitor, single point]"}
{"smiles": "CCOC(=O)CSc1nc2ccccc2c(=O)n1CCN1CCOCC1", "Potency": "inconclusive: 5.22 µM [inhibitor, partial curve, poor fit]"}
{"smiles": "CC1CCCCN1CCNS(=O)(=O)c1ccc2c(c1)oc(=O)n2C", "note": "(stereo not given)", "Potency": "inconclusive: 11.7 µM [inhibitor, partial curve]"}
{"smiles": "ClC(Cl)(Cl)c1nc(N/N=C/c2ccncc2)c2ccccc2n1", "Potency": "inconclusive: 4.15 µM [inhibitor, full curve, poor fit]"}
{"smiles": "Cn1c(C(=O)NCCCN2CCCCCC2)cc2c(=O)n(C)c3ccccc3c21", "Potency": "inconclusive: 3.7 µM [inhibitor, full curve, poor fit]"}
{"smiles": "COCCNC(=S)N1CCC(NC(=O)C23CC4CC(CC(C4)C2)C3)CC1", "Potency": "inconclusive: 4.15 µM [inhibitor, single point]"}
{"smiles": "CC(C)OCCCNC(=O)c1cn(C)c2ccc(S(=O)(=O)N3CCCC3)cc2c1=O", "Potency": "inconclusive: 18.5 µM [inhibitor, single point]"}
{"smiles": "O=C(Nc1cccc(NC(=O)c2ccccc2Cl)c1)c1ccco1", "Potency": "inactive"}
{"smiles": "CCOC(=O)CCCNC(=O)CN1CCC(c2nc3ccccc3s2)CC1", "Potency": "inconclusive: 18.5 µM [inhibitor, partial curve, poor fit]"}
{"smiles": "COc1cccc(N2CCN(c3nc(-c4ccccc4C)cc(=O)[nH]3)CC2)c1", "Potency": "inconclusive: 10.4 µM [inhibitor, single point]"}
